{"source": "patent EP4360658A1", "about": "(Julius-Maximilians-Universität Würzburg, priority 2022, dated 2024)", "note": "HELM strings list residues between dots; [ac] is acetyl, [am] amide, other brackets name non-standard units.", "data": [{"experiment": "general procedure: Fmoc solid-phase peptide synthesis; 2-Chlorotrityl chloride resin (CTC-Resin); hydroxybenzotriazole / DIC / DIPEA", "settings": "conjugation step, HPLC chromatogram; LC-MS", "units": {"purity (crude or final not stated)": "%"}, "values": [{"substance": "Ac-GPQGIAGA-Den", "purity (crude or final not stated)": ">95"}, {"substance": "PEPTIDE1{[ac].G.S.G.S.G.P.Q.A.Y.W.G.A.G.S.G.S.[Den]}$$$$V2.0", "purity (crude or final not stated)": ">90"}, {"substance": "PEPTIDE1{[ac].G.S.G.S.G.P.Q.G.I.A.G.A.G.S.G.S.[Den]}$$$$V2.0", "purity (crude or final not stated)": ">95"}]}, {"experiment": "general procedure: Fmoc solid-phase peptide synthesis; 2-Chlorotrityl chloride resin (CTC-Resin); hydroxybenzotriazole / DIC / DIPEA", "settings": "whole synthesis, HPLC chromatogram; LC-MS, scale of the general procedure 100 µmol", "units": {"purity (crude or final not stated)": "%"}, "values": [{"substance": "Ac-GALAIVGA", "purity (crude or final not stated)": ">95"}, {"substance": "Ac-GALEIVGA", "purity (crude or final not stated)": ">95"}, {"substance": "Ac-GPLAIVGA", "purity (crude or final not stated)": ">95"}, {"substance": "Ac-GPLEIVGA", "purity (crude or final not stated)": ">95"}, {"substance": "Ac-GPLELVGA", "purity (crude or final not stated)": ">95"}, {"substance": "Ac-GPQGIAGA", "purity (crude or final not stated)": ">95"}, {"substance": "Ac-GSGS-GPLALVGA-GSGS-Aha", "purity (crude or final not stated)": ">60"}, {"substance": "Ac-GSGS-GPQGIAGA-GSGS", "purity (crude or final not stated)": ">95"}, {"substance": "PEPTIDE1{I.A.G.A.G.S.G.S.[Den]}$$$$V2.0", "purity (crude or final not stated)": ">95"}, {"substance": "PEPTIDE1{[ac].G.A.L.A.L.V.G.A}$$$$V2.0", "purity (crude or final not stated)": ">90"}, {"substance": "PEPTIDE1{[ac].G.A.L.E.L.V.G.A}$$$$V2.0", "purity (crude or final not stated)": ">95"}, {"substance": "PEPTIDE1{[ac].G.P.L.A.L.V.G.A}$$$$V2.0", "purity (crude or final not stated)": ">90"}, {"substance": "PEPTIDE1{[ac].G.P.L.A.Y.W.G.A}$$$$V2.0", "purity (crude or final not stated)": ">95"}, {"substance": "PEPTIDE1{[ac].G.P.Q.A.Y.W.G.A}$$$$V2.0", "purity (crude or final not stated)": ">90"}, {"substance": "PEPTIDE1{[ac].G.P.Q.G.Y.W.G.A}$$$$V2.0", "purity (crude or final not stated)": ">95"}]}]}
